Structures can show the parent of a compound that is named as a salt. The list shows a part of the results. Hit calls seldom repeat between salt and free forms of one compound.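 Kinases, fused to nanoluciferase, were expressed in K562 cells; luminescence was measured every 4 h from 2 to 18 h as percent of control (DMSO = 100%, positive control = 0%). A time point is decreased if signal falls significantly (2 sigma). Hits were called by the authors by a rule that is not shown; the count of time points alone does not decide it.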
Assays:
Conditions in all cases: K562; 2-18 h
YES1 = YES1 (UniProt P07947); assay: number of time points (of 5) at which kinase-Nluc abundance scored as decreased, DMSO-normalised (count); higher = more persistent destabilization
ZAK = ZAK (UniProt Q9NYL2); assay: as above
ZAP70 = ZAP70 (UniProt P43403); assay: as above
CDK4 = CDK4 (UniProt P11802); assay: number of time points (of 4; 2 h point missing) at which kinase-Nluc abundance scored as decreased, DMSO-normalised (count); higher = more persistent destabilization
CDK7 = CDK7 (UniProt P50613); assay: as above
CDK9 = CDK9 (UniProt P50750); assay: as above

Protein sequences, listed by entry. Tags and fused reporters are not part of them. Lines headed by an entry give the natural chain unless they say otherwise; changes in a name come on top.
UniProt P07947, whole entry, looked up: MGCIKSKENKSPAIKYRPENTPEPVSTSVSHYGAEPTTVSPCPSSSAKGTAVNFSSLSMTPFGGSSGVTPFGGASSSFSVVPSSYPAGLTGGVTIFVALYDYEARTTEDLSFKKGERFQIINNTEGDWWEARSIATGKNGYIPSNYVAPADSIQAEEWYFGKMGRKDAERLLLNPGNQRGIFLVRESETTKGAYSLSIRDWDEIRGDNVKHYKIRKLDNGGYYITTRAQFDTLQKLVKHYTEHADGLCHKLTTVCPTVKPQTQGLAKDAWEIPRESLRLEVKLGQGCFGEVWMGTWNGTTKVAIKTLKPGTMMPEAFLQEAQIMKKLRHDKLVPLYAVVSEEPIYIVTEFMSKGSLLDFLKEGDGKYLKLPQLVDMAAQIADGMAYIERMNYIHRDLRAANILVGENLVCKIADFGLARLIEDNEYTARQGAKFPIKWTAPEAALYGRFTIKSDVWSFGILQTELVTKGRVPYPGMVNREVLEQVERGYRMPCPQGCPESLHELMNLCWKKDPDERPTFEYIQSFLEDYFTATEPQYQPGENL
UniProt P43403: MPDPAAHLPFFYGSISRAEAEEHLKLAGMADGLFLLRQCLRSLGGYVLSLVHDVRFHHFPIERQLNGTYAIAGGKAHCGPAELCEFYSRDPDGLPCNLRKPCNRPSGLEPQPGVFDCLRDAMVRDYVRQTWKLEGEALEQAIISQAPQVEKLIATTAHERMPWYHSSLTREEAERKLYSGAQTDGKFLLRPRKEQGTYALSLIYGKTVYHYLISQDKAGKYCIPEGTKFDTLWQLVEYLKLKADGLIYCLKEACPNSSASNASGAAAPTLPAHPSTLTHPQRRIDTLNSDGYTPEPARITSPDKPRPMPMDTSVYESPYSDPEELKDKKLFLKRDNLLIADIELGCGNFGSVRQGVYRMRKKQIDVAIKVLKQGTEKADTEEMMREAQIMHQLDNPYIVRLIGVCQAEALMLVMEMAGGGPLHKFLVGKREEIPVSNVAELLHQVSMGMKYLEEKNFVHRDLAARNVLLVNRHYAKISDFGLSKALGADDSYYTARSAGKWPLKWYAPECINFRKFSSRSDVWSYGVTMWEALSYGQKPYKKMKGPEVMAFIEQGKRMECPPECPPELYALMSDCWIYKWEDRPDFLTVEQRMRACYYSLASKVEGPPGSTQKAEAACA
UniProt P11802: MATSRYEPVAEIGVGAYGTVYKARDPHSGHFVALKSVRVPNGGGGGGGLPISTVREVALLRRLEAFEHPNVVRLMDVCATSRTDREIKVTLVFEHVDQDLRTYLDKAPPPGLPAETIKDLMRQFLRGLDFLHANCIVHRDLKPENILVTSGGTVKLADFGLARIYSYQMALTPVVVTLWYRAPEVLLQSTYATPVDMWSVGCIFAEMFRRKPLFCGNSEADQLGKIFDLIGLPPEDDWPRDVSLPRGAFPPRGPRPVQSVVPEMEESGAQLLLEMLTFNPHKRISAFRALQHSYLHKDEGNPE
UniProt P50613: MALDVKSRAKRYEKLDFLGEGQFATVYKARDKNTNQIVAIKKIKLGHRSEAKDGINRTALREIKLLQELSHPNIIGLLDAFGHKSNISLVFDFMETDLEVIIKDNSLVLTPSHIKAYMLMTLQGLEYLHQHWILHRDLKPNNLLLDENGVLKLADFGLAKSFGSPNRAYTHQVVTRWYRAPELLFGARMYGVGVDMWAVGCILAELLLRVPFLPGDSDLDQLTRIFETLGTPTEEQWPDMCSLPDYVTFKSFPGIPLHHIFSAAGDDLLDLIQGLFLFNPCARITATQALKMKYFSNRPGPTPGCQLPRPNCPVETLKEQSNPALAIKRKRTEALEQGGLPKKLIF
UniProt P50750, whole entry: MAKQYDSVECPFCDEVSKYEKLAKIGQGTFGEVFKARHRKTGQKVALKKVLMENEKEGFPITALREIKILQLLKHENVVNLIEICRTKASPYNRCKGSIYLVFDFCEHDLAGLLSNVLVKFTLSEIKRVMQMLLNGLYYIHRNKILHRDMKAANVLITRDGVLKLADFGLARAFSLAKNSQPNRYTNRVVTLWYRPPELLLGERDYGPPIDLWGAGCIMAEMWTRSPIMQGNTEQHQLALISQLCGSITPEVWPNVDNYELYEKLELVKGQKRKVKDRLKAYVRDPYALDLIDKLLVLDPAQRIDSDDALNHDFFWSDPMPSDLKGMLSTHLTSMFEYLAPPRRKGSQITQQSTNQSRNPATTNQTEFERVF

Compound	number of time points (YES1)	number of time points (ZAK)	number of time points (ZAP70)	number of time points (CDK4)	number of time points (CDK7)	number of time points (CDK9)
N#C/C(=C\c1ccc2oc(=O)[nH]c2c1)C(=O)c1ccc(O)c(O)c1 (10 µM)	0	0	0	0	0	0
CCOc1nc(Nc2ccc(C(=O)N3CCOCC3)cc2OC)nc2[nH]ccc12 [LRRK2 inhibitor 1] (2.5 µM)	0	0	0	0	0	0
CC(C)(C)Cn1c(N)nc2ccc(-c3[nH]c(C(C)(C)C)nc3-c3ccc(F)cc3)nc21 [Ralimetinib dimesylate] (2.5 µM)	0	0	0	0	0	0
CC[C@@H]1[C@H](F)C(=O)N[C@@H]1COc1nccc2cc(C(N)=O)c(OC)cc12 (10 µM)	0	0	0	0	0	0
Cc1cc2ncc(-c3ccccc3)nc2cc1C (10 µM)	0	0	0	0	0	0
COc1ccc(-n2c(C)c([N+](=O)[O-])c3ccc(O)cc32)cc1 (10 µM)	0	0	0	0	0	0
COc1cnccc1Nc1nc(-c2nn(Cc3c(F)cc(OCCO)cc3F)c3ccccc23)ncc1OC (10 µM)	0	0	0	0	0	0
C[C@@H]1C[C@H]2O[C@@]3(O[C@@H]2C(C)(C)O)[C@H](O)[C@@]2(C)[C@@H]4CC[C@H]5C(C)(C)[C@@H](O[C@@H]6OC[C@H](O)[C@H](O)[C@H]6O)CC[C@@]56C[C@@]46CC[C@]2(C)[C@@H]13 [Cimiracemoside C] (10 µM)	0	0	0	0	0	0
Fc1c(Br)cccc1Nc1ncnc2cc3c(cc12)OCCO3 (2.5 µM)	0	0	0	1	0	0
Cn1cc(-c2cc3c(N4CCN(c5ncc([C@@](C)(N)c6ccc(F)cc6)cn5)CC4)ncnn3c2)cn1 [Avapritinib] (2.5 µM)	0	0	0	0	0	0
COc1nc(-c2cccc3c2OCCO3)ccc1Nc1ccc(CN(C)C)cc1 [RAS inhibitor Abd-7] (10 µM)	0	0	0	0	0	0
Cc1ccc(-c2nn(C(C)(C)CNC(=O)c3ccncc3)c3ncnc(N)c23)cc1 (2.5 µM)	0	0	0	0	0	0
COC1(C(=O)N[C@@H](C)c2ccc(-n3cc(F)cn3)nc2)CCC(c2nc(C)cc(Nc3cc(C)[nH]n3)n2)CC1 (stereo partly drawn) [trans-Pralsetinib] (2.5 µM)	0	0	0	0	0	0
COc1c(C)c(C(=O)c2ccc(N)c(C(=O)O)c2)n2ccccc12 (10 µM)	0	0	0	0	0	0
O=c1ccoc2cc(O)ccc12 [7-Hydroxy-4H-chromen-4-one] (10 µM)	0	0	0	0	0	0
CC1(COc2ccc3c(c2)ncn3-c2ccc3cccc(N4CCC(N)CC4)c3n2)COC1 [Crenolanib] (2.5 µM)	0	0	0	0	3	0
Nc1cc(C(F)F)c(-c2nc(N3C4CCC3COC4)nc(N3C4CCC3COC4)n2)cn1 (2.5 µM)	0	0	0	0	0	0

Compound	number of time points (YES1)	number of time points (ZAK)	number of time points (ZAP70)	number of time points (CDK4)	number of time points (CDK7)	number of time points (CDK9)
O=C1NC(=O)C(=Cc2ccc3c(c2)OCO3)S1 (10 µM)	0	0	0	0	0	0
N=C(N)NC(=N)NCCc1ccccc1 [Phenformin (hydrochloride)] (10 µM)	0	0	0	0	0	0
O[C@H]1CC[C@H](Nc2ncc3nc(Nc4c(F)cc(F)cc4F)n([C@H]4CCOC4)c3n2)CC1 [Tanzisertib] (10 µM)	0	0	0	0	0	0
NCCCCCCNS(=O)(=O)c1cccc2c(Cl)cccc12 [W-7 (hydrochloride)] (10 µM)	0	0	0	0	0	0
COc1ccc(CN2C3CC2CN(c2ccc(-c4cc(OCC(C)(C)O)cn5ncc(C#N)c45)cn2)C3)cn1 [Selpercatinib] (10 µM)	0	0	0	0	0	0
COc1cc(N2CCC(O)CC2)ccc1Nc1cc(Nc2ccccc2S(=O)(=O)C(C)C)c2cc[nH]c2n1 (10 µM)	0	0	0	0	0	0
COc1ccc2c(c1OC)OC1c3ccc(O)cc3OCC21 (centres undefined) [Methylnissolin] (10 µM)	0	0	0	0	0	0
CCc1ccc(C(=O)COc2ccc(CC3SC(=O)NC3=O)cc2)nc1 (centres undefined) (10 µM)	0	0	0	0	0	0
O=C1NCCCc2c1oc1ccc(O)cc21 (10 µM)	0	0	0	0	0	0
CCn1nc(C2CCN(C(=O)CCO)CC2)nc1-c1cnc(N)c(-c2nnc(C(C)(C)C)o2)n1 (10 µM)	0	0	0	0	0	0
CC(=O)Nc1nc(C)c(-c2nc(N3CCCC(O)C3)no2)s1 (centres undefined) (10 µM)	0	0	0	0	0	0
COc1cc(C(=O)N2CCC(N3CCN(C)CC3)CC2)ccc1Nc1ncc2c(n1)N(C)c1ccccc1C(=O)N2C (10 µM)	0	0	0	0	0	0
O=c1[nH]ccc2cc(OC3CCNCC3)ccc12 (10 µM)	0	0	0	0	0	0
O=Nc1c(-c2c(O)[nH]c3ccccc23)[nH]c2ccccc12 [Indirubin-3'-monoxime] (2.5 µM)	0	0	0	0	0	0
Cc1cnc(Nc2ccc(N3CCN(C)CC3)cc2)nc1Nc1cccc(S(=O)(=O)NC(C)(C)C)c1 (2.5 µM)	0	0	0	0	0	0
N#C/C(=C(/N)Sc1ccc(N)cc1)c1ccccc1C(F)(F)F (10 µM)	0	0	0	0	0	0
CC(C)(C)c1cc(C(c2cc3c(cc2O)OCO3)N2CCOCC2)cc(C(C)(C)C)c1O (centres undefined) (2.5 µM)	0	0	0	0	0	0
